Paper PMC13503848
These are yes or no findings as the source states them, for the method shown. Binding seen in cells or lysates may run through a third protein. A result given as binding can be weak or reduced; the word gives no strength.

Chains of the proteins cited; added tags and fusions are not shown. Lines headed by an entry give the natural chain unless they say otherwise; changes in a name come on top. Residues count along the entry.
UniProt Q03391, residues 28-1323: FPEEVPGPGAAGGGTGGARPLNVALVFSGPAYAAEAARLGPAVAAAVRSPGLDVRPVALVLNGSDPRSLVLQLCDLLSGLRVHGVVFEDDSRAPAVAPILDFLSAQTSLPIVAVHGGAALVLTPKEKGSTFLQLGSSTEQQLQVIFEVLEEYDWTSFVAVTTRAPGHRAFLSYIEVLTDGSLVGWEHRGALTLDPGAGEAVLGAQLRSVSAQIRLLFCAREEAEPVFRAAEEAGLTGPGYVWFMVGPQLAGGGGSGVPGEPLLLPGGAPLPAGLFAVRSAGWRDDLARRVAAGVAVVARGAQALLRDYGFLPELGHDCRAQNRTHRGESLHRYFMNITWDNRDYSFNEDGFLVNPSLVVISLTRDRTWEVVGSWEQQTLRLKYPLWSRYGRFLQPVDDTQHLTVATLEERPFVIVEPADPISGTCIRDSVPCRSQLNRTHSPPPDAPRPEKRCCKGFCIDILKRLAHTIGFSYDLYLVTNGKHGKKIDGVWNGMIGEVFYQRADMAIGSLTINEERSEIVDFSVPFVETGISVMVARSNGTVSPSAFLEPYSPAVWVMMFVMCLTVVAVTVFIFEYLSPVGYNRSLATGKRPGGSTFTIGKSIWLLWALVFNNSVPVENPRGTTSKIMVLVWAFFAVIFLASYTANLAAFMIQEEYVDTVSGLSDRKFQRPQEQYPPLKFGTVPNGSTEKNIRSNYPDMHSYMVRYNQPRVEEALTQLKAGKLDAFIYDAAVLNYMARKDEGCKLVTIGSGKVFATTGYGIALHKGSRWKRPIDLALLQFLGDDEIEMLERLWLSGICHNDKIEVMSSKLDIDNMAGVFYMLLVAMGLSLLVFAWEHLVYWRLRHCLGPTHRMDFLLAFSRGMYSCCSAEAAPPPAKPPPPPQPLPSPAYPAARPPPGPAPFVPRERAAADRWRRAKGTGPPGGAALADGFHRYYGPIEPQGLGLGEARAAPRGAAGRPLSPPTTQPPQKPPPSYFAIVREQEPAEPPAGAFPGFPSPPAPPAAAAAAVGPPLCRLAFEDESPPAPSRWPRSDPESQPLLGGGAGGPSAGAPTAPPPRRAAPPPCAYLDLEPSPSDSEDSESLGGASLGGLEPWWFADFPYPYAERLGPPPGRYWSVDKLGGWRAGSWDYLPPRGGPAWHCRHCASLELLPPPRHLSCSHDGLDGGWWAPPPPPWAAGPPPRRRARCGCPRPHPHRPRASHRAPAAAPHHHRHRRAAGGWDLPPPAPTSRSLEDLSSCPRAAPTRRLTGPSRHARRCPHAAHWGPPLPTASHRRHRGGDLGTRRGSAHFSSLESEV
UniProt Q8VCQ8: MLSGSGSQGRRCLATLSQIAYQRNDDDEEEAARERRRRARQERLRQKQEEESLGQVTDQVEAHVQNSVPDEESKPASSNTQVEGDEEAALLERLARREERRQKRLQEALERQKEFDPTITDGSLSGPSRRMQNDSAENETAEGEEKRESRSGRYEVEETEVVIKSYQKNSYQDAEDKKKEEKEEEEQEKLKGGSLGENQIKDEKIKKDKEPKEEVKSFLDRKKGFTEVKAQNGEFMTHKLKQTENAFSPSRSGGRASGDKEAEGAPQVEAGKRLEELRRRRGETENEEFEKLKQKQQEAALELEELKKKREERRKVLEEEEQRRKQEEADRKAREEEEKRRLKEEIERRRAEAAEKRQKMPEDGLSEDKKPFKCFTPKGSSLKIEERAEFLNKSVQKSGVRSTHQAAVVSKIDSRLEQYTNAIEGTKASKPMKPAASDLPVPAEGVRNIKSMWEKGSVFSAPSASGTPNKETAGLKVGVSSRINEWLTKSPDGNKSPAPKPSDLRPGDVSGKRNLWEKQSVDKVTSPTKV

Target: GluN2D (NMDA receptor subunit, encoded by Grin2d), expressed as Grin2d-3XFlag (UniProt Q03391)
Test: co-IP; RIPA lysate of cultured mouse brain SMCs transduced with Grin2d-3XFlag lentivirus; anti-GluN2D or IgG control antibodies on Protein G Magnetic Beads; eluates analysed by western blot

**Q.** For “caldesmon (encoded by Cald1) (from UniProt Q8VCQ8)”, which binding is on record?
**A.** binds
